For two molecules, binding results are on record in article PMC9410877.

By UniProt entry, the sequences of proteins in these tests, tags left out.
UniProt Q3URK3: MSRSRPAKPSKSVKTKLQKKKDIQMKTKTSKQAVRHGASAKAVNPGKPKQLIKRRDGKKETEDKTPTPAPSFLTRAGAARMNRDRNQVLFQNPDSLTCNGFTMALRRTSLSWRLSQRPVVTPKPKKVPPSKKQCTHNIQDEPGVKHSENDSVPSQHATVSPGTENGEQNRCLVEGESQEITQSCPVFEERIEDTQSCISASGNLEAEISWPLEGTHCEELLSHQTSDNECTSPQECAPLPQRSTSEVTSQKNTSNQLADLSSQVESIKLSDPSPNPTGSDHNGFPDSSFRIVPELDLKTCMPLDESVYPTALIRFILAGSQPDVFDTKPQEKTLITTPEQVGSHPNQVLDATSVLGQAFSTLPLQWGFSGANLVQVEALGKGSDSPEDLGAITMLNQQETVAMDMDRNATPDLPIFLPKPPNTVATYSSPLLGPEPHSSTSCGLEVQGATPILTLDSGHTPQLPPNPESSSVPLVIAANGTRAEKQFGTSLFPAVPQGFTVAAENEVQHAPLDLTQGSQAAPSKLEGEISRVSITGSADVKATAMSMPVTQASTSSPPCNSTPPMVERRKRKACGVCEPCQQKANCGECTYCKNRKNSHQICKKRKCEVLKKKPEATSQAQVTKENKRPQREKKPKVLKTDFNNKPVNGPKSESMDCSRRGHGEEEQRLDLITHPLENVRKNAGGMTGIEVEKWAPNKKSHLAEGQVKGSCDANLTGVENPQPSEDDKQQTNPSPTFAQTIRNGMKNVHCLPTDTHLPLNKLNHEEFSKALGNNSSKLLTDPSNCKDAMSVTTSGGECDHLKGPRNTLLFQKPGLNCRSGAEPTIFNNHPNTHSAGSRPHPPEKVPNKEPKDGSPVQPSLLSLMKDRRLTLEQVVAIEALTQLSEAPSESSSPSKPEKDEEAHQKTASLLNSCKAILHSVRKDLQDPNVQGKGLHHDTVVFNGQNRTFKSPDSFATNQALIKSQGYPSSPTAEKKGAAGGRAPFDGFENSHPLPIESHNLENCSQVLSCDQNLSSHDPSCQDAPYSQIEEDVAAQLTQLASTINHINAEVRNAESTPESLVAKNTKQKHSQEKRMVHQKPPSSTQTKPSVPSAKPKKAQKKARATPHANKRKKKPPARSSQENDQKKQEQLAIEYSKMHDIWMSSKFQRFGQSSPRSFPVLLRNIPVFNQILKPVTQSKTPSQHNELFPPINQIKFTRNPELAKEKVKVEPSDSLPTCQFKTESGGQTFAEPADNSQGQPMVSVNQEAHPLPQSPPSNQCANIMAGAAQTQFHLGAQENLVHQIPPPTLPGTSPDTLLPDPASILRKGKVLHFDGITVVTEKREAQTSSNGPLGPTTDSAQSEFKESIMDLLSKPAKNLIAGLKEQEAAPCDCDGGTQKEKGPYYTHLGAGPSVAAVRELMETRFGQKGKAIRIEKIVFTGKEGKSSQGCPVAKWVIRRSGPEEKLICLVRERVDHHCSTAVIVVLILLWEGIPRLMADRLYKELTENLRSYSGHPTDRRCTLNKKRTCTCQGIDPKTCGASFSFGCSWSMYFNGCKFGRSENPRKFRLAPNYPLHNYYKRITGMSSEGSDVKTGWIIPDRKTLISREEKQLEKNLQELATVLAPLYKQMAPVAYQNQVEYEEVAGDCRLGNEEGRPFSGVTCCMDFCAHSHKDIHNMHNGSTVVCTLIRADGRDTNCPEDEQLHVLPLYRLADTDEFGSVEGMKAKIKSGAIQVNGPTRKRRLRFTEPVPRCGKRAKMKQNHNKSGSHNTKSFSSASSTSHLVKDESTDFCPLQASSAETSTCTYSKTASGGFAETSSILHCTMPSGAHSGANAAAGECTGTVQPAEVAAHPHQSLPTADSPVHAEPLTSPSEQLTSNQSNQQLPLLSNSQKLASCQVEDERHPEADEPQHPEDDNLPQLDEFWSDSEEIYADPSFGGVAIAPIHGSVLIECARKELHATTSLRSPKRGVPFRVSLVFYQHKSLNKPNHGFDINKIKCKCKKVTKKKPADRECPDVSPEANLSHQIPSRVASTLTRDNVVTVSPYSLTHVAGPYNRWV

For the assay, the target named is TET1 (ten-eleven translocation 1) (mouse (endogenous in mESCs)) (UniProt Q3URK3). Kind of assay: affinity purification with mass spectrometry; ChIP-MS of TET1: WT and Tet1 KO mESCs (Serum LIF), triplicates, crosslinked with 1% paraformaldehyde, chromatin sheared by sonication (no MNase), anti-TET1 antibody (09-872-I, Sigma-Aldrich) overnight at 4°C, protein A/G beads, two low salt (140 mM NaCl), one high salt (500 mM NaCl) and two TBS washes, on-bead trypsin digestion, LC-MS/MS, MaxLFQ; t-test, FDR 5%, log2 fold change cut-off 1.

Results are given in words; binding and its absence hold for the method and conditions named. Binding seen in cells or lysates may run through a third protein. A yes stands for co-enrichment or nearness to the bait. Other partners may have been found.

B1: SMARCAD1 (protein, UniProt Q04692 1-1021)
chain: MNLFNLDRFRFEKRSKIEEAPEAAPQPSQARPSSPISLSAEEENAEGEGSRANTPDSDVTEKTEDSSVPEPPDNERKASLSCFQNQRAIQEYIDLSSDTEDVSPNCSSTVQEKKFSKDTVIIVSEPSEDEESHDLPSVTRRNDSSELEDLSELEDLKDAKLQTLKELFPQRSDSDLLKLIESTSTMDGAIAAALLMFGDAGGGPRKRKLSSSSEEDDVNDDQSVKQPRGDRGEESNESAEASSNWEKQESIVLKLQKEFPNFDKQELREVLKEHEWMYTEALESLKVFAEDQDVQCASQSEVTNGKEVARNQNYSKNATKIKMKQKISVKPQNGFNKKRKKNVFNPKKAVEDSEYDSGSDAGSSLDEDYSSCEEVMEDGYKGKILHFLQVSSIAELTLIPKCSQKKAQKITELRPFNNWEALFTKMSKINGLSEDLIWNCKTVIQERDVVIRLMNKCEDISNKLTKQVTMLTGNGGGWNREQPSLLNQSLSLKPYQKVGLNWLALVHKHGLNGILADEMGLGKTIQAIAFLAYLFQEGNKGPHLIVVPASTIDNWLREVNLWCPSLNVLCYYGSQEERKQIRFNIHNKYEDYNVIVTTYNCAISSSDDRSLFRRLKLNYAIFDEGHMLKNMGSIRYQHLMTINARNRLLLTGTPVQNNLLELMSLLNFVMPHMFSSSTSEIRRMFSSKTKPADEQSIYEKERIAHAKQIIKPFILRRVKEEVLKLLPPKKDRIELCAMSEKQEQLYSGLFNRLKKSINNLEKNTEMCNVMMQLRKMANHPLLHRQYYTPEKLKEMSQLMLKEPTHCEANPDLIFEDMEVMTDFELHVLCKQYQHINSYQLDMDLILDSGKFRALGCILSELKQKGDRVVLFSQFTMMLDILEVLLKHHQHRYLRLDGKTQISERIHLIDEFNTDMDIFVFLLSTKAGGLGINLTSANVVILHDIDCNPYNDKQAEDRCHRVGQTKEVLVIKLISQGTIEESMLKINQQKLKLEQDMTTVDEADEGSMPADIATLLKTSMGL
For the molecule B1, the binding result was “binds”.

B2: MORC3 (protein, UniProt F7BJB9 1-942)
chain: MAAQPPTGIRLSALCPKFLHTNSTSHTWPFSAVAELIDNAYDPDVNAKQIWIDKTVISDHICLTFTDNGNGMTADKLHKMLSFGFSDKVTMNGHVPVGLYGNGFKSGSMRLGKDAMVFTKNGETMSVGFLSQTYLEVIKAEHVVVPIVTFNKHRQMINLTESKASLAAILEHSLFSTEQKLLAELNAIMGKKGTRIIIWNLRSYKNATEFDFEKDKYDIRIPEDLDETAGRKGYKKQERMDQIAPESDYSLRAYCSILYLKPRMQIIIRGQKVKTQLVSKSLAYIERDVYRPKFLTRTVRITFGFNCRNKDHYGIMMYHKNRLIKAYEKVGCQLKANNMGVGVVGIIECNFLKPTHNKQDFDYTNEYRLTILALGEKLNDYWNEMKVKKNAEYPVNLPVEDIQKRPDQTWVQCDACLKWRKLPDGIDQLPEKWYCSNNPDPQFRNCEVPEEPEDEDLVHPTYEKTYKKTSKERFRIRQPEILPRILPQINPELLYQTSVSSQSFSPVKESVPRPHLSEVTSPFAARIINLNLASPASEPENSSMKRKLGVHSSILNAKTRRLSNPPVENSSYKNDDDEDVIILEENSTPKPAVDLEVKSDIEVKSEQSHTEQSGIHVDLVSSPKPCVQASSTSTSTSRSDPGITVSTQTDAPGLTVKKEESMEEDMGVRNGTATLSCVGTEAKVQETSAESVDATSHQLQELRSELLVVTQERDDYKRQCQMFTDQIQVLQQRLLEMNDKCVKKEKCHQSTETDAVFLLDSVNGQAESLDHLGSQYQQALQEIERLKRQCSALQQVKSECSQASCTESKSEVDEMAVQLDDVFRQLDKCTIERDQYKNEVQLLEIEKSHIHSQCEELQTEVEQLKSTGQQAAADGSTASNAEEPVSYVDGESLKLRSLRVNVGQLLAMIVPDLDLQQVNYDVDVVDEILGQVVEQMSEISST
Take B2: the binding result is recorded as “binds”.
